# Experimental data: the supplement of paper PMC10849652
# By UniProt entry, the sequences of proteins in these tests, tags left out. Where a name states a change or a piece, a line headed by the entry shows the natural chain unless it says otherwise.
# UniProt Q8WUY1: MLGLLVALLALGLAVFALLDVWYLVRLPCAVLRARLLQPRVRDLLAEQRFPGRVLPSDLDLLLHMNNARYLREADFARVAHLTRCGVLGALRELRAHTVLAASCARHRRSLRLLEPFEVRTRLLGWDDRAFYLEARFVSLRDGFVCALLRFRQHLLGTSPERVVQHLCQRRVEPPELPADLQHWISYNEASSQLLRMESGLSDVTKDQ
# UniProt Q9Y5L4: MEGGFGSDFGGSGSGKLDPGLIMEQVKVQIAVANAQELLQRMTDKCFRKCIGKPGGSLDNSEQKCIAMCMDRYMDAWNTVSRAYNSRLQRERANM
# UniProt O43615: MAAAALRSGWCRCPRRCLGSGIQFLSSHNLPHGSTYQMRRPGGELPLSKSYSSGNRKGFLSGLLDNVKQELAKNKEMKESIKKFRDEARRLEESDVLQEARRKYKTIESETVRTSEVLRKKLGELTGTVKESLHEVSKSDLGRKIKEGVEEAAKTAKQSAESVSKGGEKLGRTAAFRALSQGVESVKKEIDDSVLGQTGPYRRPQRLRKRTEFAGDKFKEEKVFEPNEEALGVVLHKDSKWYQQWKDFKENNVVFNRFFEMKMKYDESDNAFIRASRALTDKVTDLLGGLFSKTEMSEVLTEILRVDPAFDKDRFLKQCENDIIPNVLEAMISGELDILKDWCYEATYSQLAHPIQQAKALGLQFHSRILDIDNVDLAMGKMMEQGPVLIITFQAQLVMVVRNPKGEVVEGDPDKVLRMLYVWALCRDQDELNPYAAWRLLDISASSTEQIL
# UniProt Q5JTD0: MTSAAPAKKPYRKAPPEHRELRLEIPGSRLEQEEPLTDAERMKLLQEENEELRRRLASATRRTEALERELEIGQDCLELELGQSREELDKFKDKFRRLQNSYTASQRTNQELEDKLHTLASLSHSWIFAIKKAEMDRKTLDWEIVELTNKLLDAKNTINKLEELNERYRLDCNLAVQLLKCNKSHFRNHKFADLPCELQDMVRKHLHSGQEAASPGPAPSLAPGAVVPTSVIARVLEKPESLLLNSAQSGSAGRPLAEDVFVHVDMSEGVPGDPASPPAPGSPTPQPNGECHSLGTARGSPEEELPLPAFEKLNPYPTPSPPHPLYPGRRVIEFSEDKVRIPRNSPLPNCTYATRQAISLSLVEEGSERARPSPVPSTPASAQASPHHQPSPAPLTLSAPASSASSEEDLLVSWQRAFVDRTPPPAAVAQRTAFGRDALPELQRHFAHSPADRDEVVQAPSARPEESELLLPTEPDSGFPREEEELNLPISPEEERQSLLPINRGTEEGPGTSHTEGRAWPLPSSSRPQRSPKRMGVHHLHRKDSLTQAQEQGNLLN
# UniProt P15923: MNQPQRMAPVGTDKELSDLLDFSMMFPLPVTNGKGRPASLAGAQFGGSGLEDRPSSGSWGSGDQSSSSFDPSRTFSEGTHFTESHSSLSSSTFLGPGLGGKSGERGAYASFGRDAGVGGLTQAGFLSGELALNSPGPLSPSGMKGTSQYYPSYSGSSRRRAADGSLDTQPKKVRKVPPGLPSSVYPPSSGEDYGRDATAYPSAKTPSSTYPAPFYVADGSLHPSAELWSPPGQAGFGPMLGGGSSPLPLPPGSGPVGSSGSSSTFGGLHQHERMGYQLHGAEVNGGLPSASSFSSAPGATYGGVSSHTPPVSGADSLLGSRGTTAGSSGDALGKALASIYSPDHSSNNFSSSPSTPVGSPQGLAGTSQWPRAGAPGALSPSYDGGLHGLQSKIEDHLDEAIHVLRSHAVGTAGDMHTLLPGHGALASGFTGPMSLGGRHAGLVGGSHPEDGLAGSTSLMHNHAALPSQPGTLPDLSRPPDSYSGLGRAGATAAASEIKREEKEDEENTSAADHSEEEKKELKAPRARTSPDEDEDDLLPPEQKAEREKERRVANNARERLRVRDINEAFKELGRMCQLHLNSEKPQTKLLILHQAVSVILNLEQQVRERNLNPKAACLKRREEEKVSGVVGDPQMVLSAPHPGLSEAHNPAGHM
# UniProt Q9NWX6: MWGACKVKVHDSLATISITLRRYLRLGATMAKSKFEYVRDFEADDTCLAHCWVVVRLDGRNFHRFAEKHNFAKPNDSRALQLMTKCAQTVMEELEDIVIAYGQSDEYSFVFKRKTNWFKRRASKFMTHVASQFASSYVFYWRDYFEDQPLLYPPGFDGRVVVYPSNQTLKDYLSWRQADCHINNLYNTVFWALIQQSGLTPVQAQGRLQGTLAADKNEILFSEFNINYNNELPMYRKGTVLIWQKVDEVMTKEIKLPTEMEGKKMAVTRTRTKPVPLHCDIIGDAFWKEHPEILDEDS
# UniProt P02786, whole entry, looked up: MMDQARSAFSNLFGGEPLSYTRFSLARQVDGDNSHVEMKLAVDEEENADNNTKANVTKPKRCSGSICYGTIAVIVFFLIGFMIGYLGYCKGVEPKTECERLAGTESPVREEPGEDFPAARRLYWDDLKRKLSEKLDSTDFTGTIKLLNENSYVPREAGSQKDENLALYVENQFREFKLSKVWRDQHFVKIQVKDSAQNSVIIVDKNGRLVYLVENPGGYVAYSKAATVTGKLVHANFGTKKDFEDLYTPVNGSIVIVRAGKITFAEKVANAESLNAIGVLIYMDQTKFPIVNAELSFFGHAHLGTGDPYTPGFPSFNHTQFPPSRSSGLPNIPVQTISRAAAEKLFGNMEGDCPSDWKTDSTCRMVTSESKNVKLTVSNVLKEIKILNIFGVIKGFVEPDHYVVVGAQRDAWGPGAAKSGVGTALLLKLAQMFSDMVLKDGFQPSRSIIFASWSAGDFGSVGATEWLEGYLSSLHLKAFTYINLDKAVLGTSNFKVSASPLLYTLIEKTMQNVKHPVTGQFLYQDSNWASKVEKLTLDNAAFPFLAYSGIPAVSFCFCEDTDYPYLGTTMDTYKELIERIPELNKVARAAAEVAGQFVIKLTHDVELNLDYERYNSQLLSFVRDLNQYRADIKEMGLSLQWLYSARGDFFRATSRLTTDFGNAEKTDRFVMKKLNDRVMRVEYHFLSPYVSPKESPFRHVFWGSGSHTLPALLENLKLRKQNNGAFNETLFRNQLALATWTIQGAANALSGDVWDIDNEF
# UniProt Q9UHD2: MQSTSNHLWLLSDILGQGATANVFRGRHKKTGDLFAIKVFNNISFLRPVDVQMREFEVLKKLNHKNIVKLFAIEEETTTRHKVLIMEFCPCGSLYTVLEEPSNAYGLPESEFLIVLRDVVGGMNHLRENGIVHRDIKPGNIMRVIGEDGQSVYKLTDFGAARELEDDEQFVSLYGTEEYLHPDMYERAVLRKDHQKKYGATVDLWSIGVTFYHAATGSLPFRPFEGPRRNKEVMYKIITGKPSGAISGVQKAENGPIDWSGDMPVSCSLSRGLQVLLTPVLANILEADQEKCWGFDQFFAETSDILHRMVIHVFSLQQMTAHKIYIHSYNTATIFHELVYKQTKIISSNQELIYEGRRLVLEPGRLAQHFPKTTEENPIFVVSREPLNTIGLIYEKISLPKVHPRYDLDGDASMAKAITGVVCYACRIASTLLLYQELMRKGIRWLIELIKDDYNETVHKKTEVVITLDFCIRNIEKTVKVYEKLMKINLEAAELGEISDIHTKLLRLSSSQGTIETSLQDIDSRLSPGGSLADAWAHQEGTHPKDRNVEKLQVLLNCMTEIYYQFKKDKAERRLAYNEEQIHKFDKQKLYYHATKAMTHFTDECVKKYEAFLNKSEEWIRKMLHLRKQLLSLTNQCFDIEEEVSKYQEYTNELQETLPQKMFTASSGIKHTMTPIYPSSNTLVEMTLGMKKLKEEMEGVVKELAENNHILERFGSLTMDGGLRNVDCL
# UniProt Q9NPL8: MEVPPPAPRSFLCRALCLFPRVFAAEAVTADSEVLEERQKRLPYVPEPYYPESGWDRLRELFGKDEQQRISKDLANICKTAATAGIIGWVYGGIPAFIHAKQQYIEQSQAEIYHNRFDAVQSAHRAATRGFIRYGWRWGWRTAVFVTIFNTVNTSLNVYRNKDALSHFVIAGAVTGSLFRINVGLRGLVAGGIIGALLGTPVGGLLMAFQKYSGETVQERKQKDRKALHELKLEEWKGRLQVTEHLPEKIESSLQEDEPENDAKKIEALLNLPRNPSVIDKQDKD
# UniProt O60830: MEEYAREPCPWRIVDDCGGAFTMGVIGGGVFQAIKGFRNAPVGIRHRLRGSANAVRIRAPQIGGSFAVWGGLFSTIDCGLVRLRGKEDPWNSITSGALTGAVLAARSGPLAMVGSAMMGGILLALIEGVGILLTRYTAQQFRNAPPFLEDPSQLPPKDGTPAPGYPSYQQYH
# UniProt P01137, whole entry, looked up: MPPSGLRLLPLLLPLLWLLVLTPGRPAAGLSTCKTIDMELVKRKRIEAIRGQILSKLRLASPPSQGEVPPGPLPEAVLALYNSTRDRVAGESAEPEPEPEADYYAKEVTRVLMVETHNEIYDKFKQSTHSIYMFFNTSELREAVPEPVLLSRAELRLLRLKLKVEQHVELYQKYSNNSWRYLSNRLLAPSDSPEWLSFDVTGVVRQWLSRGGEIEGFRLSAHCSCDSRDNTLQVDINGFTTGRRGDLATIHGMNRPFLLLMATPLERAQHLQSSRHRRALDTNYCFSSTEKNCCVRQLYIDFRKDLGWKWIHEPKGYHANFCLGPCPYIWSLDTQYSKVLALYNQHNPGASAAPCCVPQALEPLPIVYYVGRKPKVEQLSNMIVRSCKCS
# UniProt Q3ZCQ8: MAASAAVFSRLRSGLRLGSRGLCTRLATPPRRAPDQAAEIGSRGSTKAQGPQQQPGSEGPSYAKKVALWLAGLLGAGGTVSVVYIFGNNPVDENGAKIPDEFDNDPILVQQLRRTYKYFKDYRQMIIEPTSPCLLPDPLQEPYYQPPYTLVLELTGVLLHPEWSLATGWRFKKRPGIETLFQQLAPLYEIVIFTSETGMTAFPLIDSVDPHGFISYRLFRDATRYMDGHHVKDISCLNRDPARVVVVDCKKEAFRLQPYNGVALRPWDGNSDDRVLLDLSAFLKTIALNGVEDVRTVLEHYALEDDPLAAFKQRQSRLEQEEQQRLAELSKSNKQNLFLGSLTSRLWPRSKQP
# UniProt Q99081: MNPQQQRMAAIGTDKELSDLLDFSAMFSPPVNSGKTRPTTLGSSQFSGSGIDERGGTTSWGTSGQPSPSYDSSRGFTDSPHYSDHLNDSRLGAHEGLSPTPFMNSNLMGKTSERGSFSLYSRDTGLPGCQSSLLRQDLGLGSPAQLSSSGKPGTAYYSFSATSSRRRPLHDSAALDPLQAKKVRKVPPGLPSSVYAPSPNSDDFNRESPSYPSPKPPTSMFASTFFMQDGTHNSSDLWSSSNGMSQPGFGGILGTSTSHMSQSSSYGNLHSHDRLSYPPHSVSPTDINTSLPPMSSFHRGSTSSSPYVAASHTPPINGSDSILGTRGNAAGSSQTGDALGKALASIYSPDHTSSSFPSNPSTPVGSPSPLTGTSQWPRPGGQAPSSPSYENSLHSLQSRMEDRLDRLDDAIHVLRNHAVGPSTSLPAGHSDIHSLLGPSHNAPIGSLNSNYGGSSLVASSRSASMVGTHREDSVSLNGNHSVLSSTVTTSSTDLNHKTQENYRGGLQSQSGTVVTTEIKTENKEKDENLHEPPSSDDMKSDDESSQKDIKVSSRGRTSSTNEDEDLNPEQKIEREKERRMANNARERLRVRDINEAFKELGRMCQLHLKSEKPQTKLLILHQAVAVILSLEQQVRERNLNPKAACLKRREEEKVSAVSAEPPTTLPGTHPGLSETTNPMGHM
# UniProt Q15554: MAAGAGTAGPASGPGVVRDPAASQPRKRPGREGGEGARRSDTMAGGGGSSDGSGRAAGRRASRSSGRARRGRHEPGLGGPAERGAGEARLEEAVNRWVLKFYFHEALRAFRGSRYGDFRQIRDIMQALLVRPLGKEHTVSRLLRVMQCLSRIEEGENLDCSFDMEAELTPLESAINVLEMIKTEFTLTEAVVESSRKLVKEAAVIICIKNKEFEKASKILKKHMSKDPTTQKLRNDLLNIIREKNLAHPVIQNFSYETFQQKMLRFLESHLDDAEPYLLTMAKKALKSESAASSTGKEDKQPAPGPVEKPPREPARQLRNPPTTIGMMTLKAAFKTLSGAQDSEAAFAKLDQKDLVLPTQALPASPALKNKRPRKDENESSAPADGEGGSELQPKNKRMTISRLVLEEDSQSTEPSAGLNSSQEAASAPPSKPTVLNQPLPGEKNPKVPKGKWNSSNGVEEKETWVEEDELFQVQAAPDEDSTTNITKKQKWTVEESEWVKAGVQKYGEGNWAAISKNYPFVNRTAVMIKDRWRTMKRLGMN
# UniProt Q6I9Y2: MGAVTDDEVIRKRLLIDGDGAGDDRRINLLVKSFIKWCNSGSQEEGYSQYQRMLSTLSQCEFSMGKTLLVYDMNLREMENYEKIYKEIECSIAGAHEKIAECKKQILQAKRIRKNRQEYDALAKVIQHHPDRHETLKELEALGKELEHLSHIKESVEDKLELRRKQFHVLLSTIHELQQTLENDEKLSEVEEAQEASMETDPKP
# The other results are listed elsewhere or left out.
# Assays:
# Experiment in all cases: log2 fold change, soluble protein after heating vs DMSO (PISA); higher = thermal stabilisation; K562 cells, 10 uM, 30 min; active = over 0.2 and 3.5 SD of the protein, either way, in both replicates (recomputed)
# [1] = compound: COC1=CC=C(C=C1)CN2C=CC3=C2C=C(C=C3)C(=O)NO
# Method in brief: (§1)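 K562 cells at 2×10^6 cells/mL were given 10 μM compound for 30 min. Aliquots then went through 3 min of heating across 48°C-58°C, were pooled, and were extracted in PBS with 0.5% NP-40 at 4°C, and the supernatant after 21,000xg for 90 min was quantified by TMTpro 16plex LC-MS/MS with channel sums equalised. Thermal stability relative to control samples, from duplicates, is given as log2 fold change.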
# filanesib = compound: CON(C)C(=O)N1N=C(c2cc(F)ccc2F)S[C@@]1(CCCN)c1ccccc1 [filanesib]
# Method in brief: as §1
# zotarolimus = compound: CO[C@H]1C[C@@H]2CC[C@@H](C)[C@@](O)(O2)C(=O)C(=O)N2CCCC[C@H]2C(=O)O[C@H]([C@H](C)C[C@@H]2CC[C@H](n3cnnn3)[C@H](OC)C2)CC(=O)[C@H](C)/C=C(\C)[C@@H](O)[C@@H](OC)C(=O)[C@H](C)C[C@H](C)/C=C/C=C/C=C/1C [zotarolimus]
# Method in brief: as §1
# idasanutlin = compound: COc1cc(C(=O)O)ccc1NC(=O)[C@@H]1N[C@@H](CC(C)(C)C)[C@](C#N)(c2ccc(Cl)cc2F)[C@H]1c1cccc(Cl)c1F [idasanutlin]
# Method in brief: as §1
# alisertib = compound: COc1cc(Nc2ncc3c(n2)-c2ccc(Cl)cc2C(c2c(F)cccc2OC)=NC3)ccc1C(=O)O [alisertib]
# Method in brief: as §1
# [2] = compound: COc1cc2nc(-c3cc(F)ccc3O)nc(N[C@@H]3CNC[C@H]3C(C)(C)O)c2cc1OC
# Method in brief: as §1
# gefitinib = compound: COc1cc2ncnc(Nc3ccc(F)c(Cl)c3)c2cc1OCCCN1CCOCC1 [gefitinib]
# Method in brief: as §1
# [3] = compound: COc1cccc2cc(-c3nc([C@H]4CC[C@H](C(=O)O)CC4)n4ncnc(N)c34)[nH]c12
# Method in brief: as §1
# lapatinib = compound: CS(=O)(=O)CCNCc1ccc(-c2ccc3ncnc(Nc4ccc(OCc5cccc(F)c5)c(Cl)c4)c3c2)o1 [lapatinib]
# Method in brief: as §1
# pictilisib = compound: CS(=O)(=O)N1CCN(Cc2cc3nc(-c4cccc5[nH]ncc45)nc(N4CCOCC4)c3s2)CC1 [pictilisib]
# Method in brief: as §1
# [4] = compound: CS(=O)(=O)c1ccc(-c2cnc(N)c(C(=O)Nc3ccccc3)n2)cc1
# Method in brief: as §1
# crizotinib = compound: C[C@@H](Oc1cc(-c2cnn(C3CCNCC3)c2)cnc1N)c1c(Cl)ccc(F)c1Cl [crizotinib]
# Method in brief: as §1
# [5] = compound: C[C@@H]1COCCN1C2=NC(=NC(=C2)C3(CC3)S(=O)(=O)C)C4=C5C=CNC5=CC=C4
# Method in brief: as §1
# [6] = compound: C[C@H](C1=CC=C(C=C1)C(=O)NC2=C3C=CNC3=NC=C2)N
# Method in brief: as §1
# duvelisib = compound: C[C@H](Nc1ncnc2nc[nH]c12)c1cc2cccc(Cl)c2c(=O)n1-c1ccccc1 [duvelisib]
# Method in brief: as §1
# gandotinib = compound: Cc1cc(Nc2cc(CN3CCOCC3)c3nc(C)c(Cc4ccc(Cl)cc4F)n3n2)n[nH]1 [gandotinib]
# Method in brief: as §1
# tozasertib = compound: Cc1cc(Nc2cc(N3CCN(C)CC3)nc(Sc3ccc(NC(=O)C4CC4)cc3)n2)n[nH]1 [tozasertib]
# Method in brief: as §1
# [7] = compound: Cc1cc(SCc2sc(-c3ccc(C(F)(F)F)cc3)nc2C)ccc1OCC(=O)O
# Method in brief: as §1
# doramapimod = compound: Cc1ccc(-n2nc(C(C)(C)C)cc2NC(=O)Nc2ccc(OCCN3CCOCC3)c3ccccc23)cc1 [doramapimod]
# Method in brief: as §1
# ispinesib = compound: Cc1ccc(C(=O)N(CCCN)[C@@H](c2nc3cc(Cl)ccc3c(=O)n2Cc2ccccc2)C(C)C)cc1 [ispinesib]
# Method in brief: as §1
Target,log2 fold change [1],log2 fold change (filanesib),log2 fold change (zotarolimus),log2 fold change (idasanutlin),log2 fold change (alisertib),log2 fold change [2],log2 fold change (gefitinib),log2 fold change [3],log2 fold change (lapatinib),log2 fold change (pictilisib),log2 fold change [4],log2 fold change (crizotinib),log2 fold change [5],log2 fold change [6],log2 fold change (duvelisib),log2 fold change (gandotinib),log2 fold change (tozasertib),log2 fold change [7],log2 fold change (doramapimod),log2 fold change (ispinesib)
THEM6 (UniProt Q8WUY1),inactive: 0.002,inactive: -0.065,inactive: 0.018,inactive: 0.001,inactive: -0.088,inactive: -0.047,inactive: 0.01,inactive: 0.099,inactive: 0.013,inactive: 0.05,inactive: -0.008,inactive: -0.186,inactive: 0.129,inactive: -0.125,inactive: 0.064,inactive: 0.012,inactive: 0.004,inactive: 0.019,inactive: 0.013,inactive: 0.05
TIMM13 (UniProt Q9Y5L4),inactive: 0.206,inactive: -0.091,inactive: 0.042,inactive: -0.043,inactive: -0.006,active: -0.3,inactive: -0.002,inactive: -0.01,inactive: 0.027,inactive: -0.056,inactive: -0.047,inactive: 0.051,inactive: 0.151,inactive: -0.115,–,inactive: -0.002,–,inactive: 0.006,inactive: 0.039,inactive: 0.12
TIMM44 (UniProt O43615),inactive: 0,inactive: -0.229,inactive: 0.027,inactive: -0.042,inactive: -0.021,active: -0.296,inactive: -0.135,inactive: 0.017,inactive: -0.073,inactive: -0.041,inactive: -0.028,inactive: -0.207,inactive: 0.056,inactive: -0.015,–,inactive: -0.258,–,inactive: 0.091,inactive: -0.035,inactive: -0.128
TJAP1 (UniProt Q5JTD0),inactive: -0.059,inactive: 0.193,inactive: -0.026,inactive: -0.004,inactive: -0.018,inactive: 0.126,inactive: 0.028,inactive: 0.036,inactive: 0.182,inactive: 0.07,inactive: -0.065,inactive: 0.08,inactive: 0.001,inactive: -0.176,inactive: 0.024,inactive: 0.159,inactive: -0.008,inactive: 0.098,inactive: -0.011,inactive: -0.13
TCF3 (UniProt P15923),inactive: -0.009,inactive: -0.067,inactive: -0.079,inactive: -0.027,inactive: -0.058,inactive: 0.028,inactive: 0.023,inactive: -0.027,inactive: -0.013,inactive: 0.063,inactive: -0.041,inactive: -0.003,inactive: 0.075,inactive: 0.024,inactive: -0.021,inactive: -0.127,inactive: 0.009,inactive: -0.097,inactive: 0.009,inactive: 0.044
THG1L (UniProt Q9NWX6),inactive: -0.002,inactive: -0.009,inactive: -0.022,inactive: -0.056,inactive: -0.012,inactive: 0.033,inactive: 0.017,inactive: 0.032,inactive: -0.016,inactive: 0.031,inactive: 0.018,inactive: 0.031,inactive: 0.048,inactive: -0.027,inactive: 0.015,inactive: -0.067,inactive: 0.001,inactive: -0.018,inactive: -0.013,inactive: 0.047
TFRC (UniProt P02786),inactive: 0.009,inactive: -0.013,inactive: -0.041,inactive: -0.027,inactive: -0.05,inactive: 0.017,inactive: 0.004,inactive: 0.063,inactive: -0.03,inactive: 0.048,inactive: 0.026,active: -0.283,inactive: 0.012,inactive: -0.018,–,inactive: -0.011,–,inactive: -0.023,inactive: -0.012,inactive: -0.059
TBK1 (UniProt Q9UHD2),inactive: -0.06,inactive: 0.05,inactive: -0.037,inactive: 0.046,inactive: 0.064,inactive: 0.087,inactive: -0.098,inactive: 0.08,inactive: -0.018,inactive: 0.009,inactive: -0.027,active: 0.489,inactive: -0.021,inactive: 0.043,–,inactive: 0.237,–,inactive: 0.175,inactive: 0.013,inactive: -0.18
TIMMDC1 (UniProt Q9NPL8),inactive: 0.075,inactive: -0.056,inactive: -0.065,inactive: -0.008,inactive: -0.03,inactive: -0.014,inactive: 0.008,inactive: 0.01,inactive: -0.022,inactive: 0.017,inactive: 0.002,inactive: 0.064,inactive: 0.016,inactive: 0.017,inactive: -0.025,inactive: 0.03,inactive: -0.021,inactive: -0.07,inactive: -0.063,inactive: 0.08
TIMM17B (UniProt O60830),inactive: -0.074,inactive: -0.025,inactive: -0.004,inactive: 0.08,inactive: -0.014,inactive: -0.086,inactive: 0,inactive: 0.072,inactive: 0.051,inactive: -0.052,inactive: 0.018,inactive: 0.047,inactive: -0.025,inactive: -0.025,inactive: 0.183,inactive: 0.04,inactive: -0.044,inactive: -0.054,inactive: 0.014,inactive: -0.045
TGFB1 (UniProt P01137),inactive: -0.008,inactive: 0.034,inactive: -0.008,inactive: -0.076,inactive: -0.037,inactive: -0.004,inactive: 0.002,inactive: 0.051,inactive: -0.011,inactive: 0,inactive: -0.037,inactive: 0.091,inactive: 0.005,inactive: -0.01,inactive: 0,inactive: 0.016,inactive: 0.003,inactive: -0.001,inactive: 0.002,inactive: 0.056
TIMM50 isoform 2 (UniProt Q3ZCQ8),inactive: -0.008,inactive: 0.023,inactive: -0.014,inactive: -0.029,inactive: -0.084,inactive: 0.13,inactive: 0.029,inactive: 0.021,inactive: 0.002,inactive: 0.087,inactive: -0.001,inactive: 0.039,inactive: 0.066,inactive: -0.007,inactive: 0.081,inactive: -0.034,inactive: -0.005,inactive: 0.026,inactive: -0.025,inactive: 0.027
TCF12 isoform 3 (UniProt Q99081),inactive: 0.108,inactive: -0.044,inactive: 0.022,inactive: -0.191,inactive: -0.043,inactive: -0.034,inactive: -0.011,inactive: 0.038,inactive: 0.015,inactive: 0.014,inactive: -0.015,inactive: -0.013,inactive: -0.029,inactive: -0.223,inactive: -0.004,inactive: -0.203,inactive: 0.063,inactive: 0.097,inactive: 0.02,inactive: 0.043
TERF2 (UniProt Q15554),inactive: 0.042,inactive: 0.147,inactive: 0.113,inactive: 0.05,inactive: 0.01,inactive: -0.015,inactive: 0.078,inactive: -0.257,inactive: 0.019,inactive: -0.043,inactive: -0.017,inactive: -0.019,inactive: 0.255,inactive: 0.104,inactive: -0.333,inactive: 0.015,inactive: 0.016,inactive: -0.065,inactive: 0.025,inactive: -0.049
THUMPD2 (UniProt Q9BTF0),inactive: 0,inactive: 0.05,inactive: -0.042,inactive: 0.043,inactive: -0.024,inactive: 0.006,inactive: -0.067,inactive: 0.006,inactive: -0.016,inactive: -0.021,inactive: 0.018,inactive: 0.059,inactive: -0.003,inactive: 0.071,inactive: 0.093,inactive: 0.06,inactive: -0.03,inactive: -0.037,inactive: -0.026,inactive: 0.091
THOC7 (UniProt Q6I9Y2),inactive: -0.025,inactive: 0.119,inactive: 0.049,inactive: 0.06,inactive: -0.05,inactive: 0.025,inactive: 0.013,inactive: -0.038,inactive: -0.003,inactive: -0.047,inactive: -0.022,inactive: -0.004,inactive: 0,inactive: 0.05,inactive: 0.014,inactive: 0.012,inactive: -0.048,inactive: 0.001,inactive: 0.049,inactive: -0.069

# Reformatted as tab-separated lines: part of the list above.
Target	log2 fold change [1]	log2 fold change (filanesib)	log2 fold change (zotarolimus)	log2 fold change (idasanutlin)	log2 fold change (alisertib)	log2 fold change [2]	log2 fold change (gefitinib)	log2 fold change [3]	log2 fold change (lapatinib)	log2 fold change (pictilisib)	log2 fold change [4]	log2 fold change (crizotinib)	log2 fold change [5]	log2 fold change [6]	log2 fold change (duvelisib)	log2 fold change (gandotinib)	log2 fold change (tozasertib)	log2 fold change [7]	log2 fold change (doramapimod)	log2 fold change (ispinesib)
THEM6 (UniProt Q8WUY1)	inactive: 0.002	inactive: -0.065	inactive: 0.018	inactive: 0.001	inactive: -0.088	inactive: -0.047	inactive: 0.01	inactive: 0.099	inactive: 0.013	inactive: 0.05	inactive: -0.008	inactive: -0.186	inactive: 0.129	inactive: -0.125	inactive: 0.064	inactive: 0.012	inactive: 0.004	inactive: 0.019	inactive: 0.013	inactive: 0.05
TIMM13 (UniProt Q9Y5L4)	inactive: 0.206	inactive: -0.091	inactive: 0.042	inactive: -0.043	inactive: -0.006	active: -0.3	inactive: -0.002	inactive: -0.01	inactive: 0.027	inactive: -0.056	inactive: -0.047	inactive: 0.051	inactive: 0.151	inactive: -0.115	–	inactive: -0.002	–	inactive: 0.006	inactive: 0.039	inactive: 0.12
TIMM44 (UniProt O43615)	inactive: 0	inactive: -0.229	inactive: 0.027	inactive: -0.042	inactive: -0.021	active: -0.296	inactive: -0.135	inactive: 0.017	inactive: -0.073	inactive: -0.041	inactive: -0.028	inactive: -0.207	inactive: 0.056	inactive: -0.015	–	inactive: -0.258	–	inactive: 0.091	inactive: -0.035	inactive: -0.128
TJAP1 (UniProt Q5JTD0)	inactive: -0.059	inactive: 0.193	inactive: -0.026	inactive: -0.004	inactive: -0.018	inactive: 0.126	inactive: 0.028	inactive: 0.036	inactive: 0.182	inactive: 0.07	inactive: -0.065	inactive: 0.08	inactive: 0.001	inactive: -0.176	inactive: 0.024	inactive: 0.159	inactive: -0.008	inactive: 0.098	inactive: -0.011	inactive: -0.13
